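Luminescence from an EWS-FLI1 target-promoter (NR0B1) reporter, set against a CMV-promoter reporter, two days after silencing single genes in TC32 Ewing sarcoma cells.
Each siRNA was applied at 20 nM.
A z-score of the log NR0B1-over-CMV signal, less the median of siRNAs with the same seed; more negative means a stronger specific loss of the NR0B1 reporter.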

The strongest results of the screen are mostly left out here.
Sequences are the guide (antisense) strand, without overhang.

Sequence	target gene	seed-corrected z-score
UAGCAUUCGCUGUAGUUCC	TAF1	-0.998
AAAGGUAUAUAGCUCCACC	TRMO	0.9899
AACUUGAUGAUAUAGUUCC	COL6A5	-0.789
UCACAGUUCACUGGGAUGC	PNMA1	0.2099
ACAGAUUGGAUUCCCAUGG	PTTG1	1.312
AGCGAUUUCAUUCCUAAGG	SIPA1L1	-0.6196
UUCUUUAAGAUUUUCCAAC	ENOX2	-0.3465
UCAUAAACCACCUCGGUUC	NAPEPLD	-1.03
UCCUUAAUAACUGUCUCUC	DCTN1	-0.1889
UUCAUGUCCCGUCUUAAGC	DHRS9	-1.268
UAGGAUAAACUGACUGAUC	CHEK2	-0.367
UGACAGACACCCUUGUCCU	LINC00173	-1.481
UUCCUUUAAAUCUACGACC	SSB	-0.2555
UACAAUCGCACUUAUACUG	PTGS2	0.7112
UUAGAGAAGACGAUUAGGG	CPT1C	-0.7533
AAGUUGACGAAUGAGUUCC	DNAH14	-1.26
UCUGCGUCCAUGAGGGUUA	SOX15	-0.07942
AUAGUGAAAACCAAAAUGG	GLRX5	1.573
UUAGUAGUAACUGAUAGGG	PDE6H	0.7698
UAUUAAGCACGAAUCGUCG	MYO5C	2.169
UUCUGUUAACAUGCGCUGC	FAM193A	0.08224
UUCGAAUUUAAAACUCAGG	COMTD1	-0.3763
AUCAUUACUACACCAGACG	ALAS2	0.0275
UCUAUGAUCUCGCUCUUGG	KRT3	-0.08883
UUUGAAAGCAUAGGGAUGC	RPL31P50	-0.3224
UCUUCGAUAUUUCUCUUCC	DNLZ	0.2241
UCCGGGUUCCUUUUGUCCU	GIPC1	0.0903
AGUAGAUCCUGCGUUGACC	LINC01235	-0.5173
UAUUCGUUAAGACAUCAGG	TFF3	1.364
ACAGUGAACAGGUAGACCA	TMEM115	1.353
UCUCAUAUCUAAGAUAACC	DCAF13	0.3696
AAUGCUUCGAUAGUCGUAG	RPGR	-0.0455
UGGGCUACCAUUAUCAGGG	SLC4A4	0.0578
UCAGAGUUUCAAUCGGUUC	TXNDC16	-0.1687
UAUUCUAAGGUGCAGGUGG	GRM4	0.02565
UUGGUGAUUAGUCAAAGAG	RPLP0	-1.867
UUCUCAAUCCGAUUGAUCA	STX4	0.6418
UAUGCAACAGGUUGCCUGC	AMER1	1.094
UCAGUAUUCUGUUCUUCCC	ZNF563	-0.05045
UAAAUAUCCUCAGGGACGU	BCL7B	0.0551
UACUGAUAGAAGACCAGCG	MAMDC4	0.9318
AAAGGUUCCUCACCUUUCU	HLA-DRB7	-0.2435
AUAGAGGAUCCUGAUAUGG	OR52E6	-0.7375
UGUUAAUCUCUUUAGGUGC	RGS21	-0.2965
UCCCGGAUAUUGUUGAUGC	FARSA	0.1537
AAAUGUUCUGCAUGGAUCC	USP51	0.1772
UCACUAACAAUUCUCCUGG	GATA5	0.8524
UCUGCACCCAGGGUAUGAG	CTRB2	-0.1426
UGAACUGCAACAUCUGUAG	KIR3DL3	-0.935
UCCUUUCCCUGGUUCUCCC	COL13A1	0.3781
AAGGAUAUGGUAUUCGUUG	KRT20	0.0304
AAAGUUUGCAUCAUCGAUA	SLC36A3	0.0003361
ACCGGAUUUGCUGUUGUUC	PHF21A	-0.2862
UAGCGUACCUCUGGAUUGC	HGF	0.1245
UCUGUAGUCAGCAAUACCU	TCN2	0.2958
UCAGAGUGUUGUACAGUCC	TGFB3	0.63
UCAUAGUCCUCUUCAUUGC	ARIH2	0.5569
AAACUUGACCUCGAACUGC	OAS3	0.0183
UUCUGGAGAACACUCGUAC	CREB3L3	0.08266
AAGCGCAUGAAGACAGUCC	ENG	-0.9559
AUAGUAAUCGCAGAGCAGC	SLC45A1	-1.111
UCCGCACUAAUUUCGCUUC	C1QBP	-0.04339
UUCCUCAAAAGCUCGUUUC	STEAP2	0.7036
UAGGAUGUCAGCAGGAUUG	SLC5A2	-1.572
UAAGCUAGGACUGAUCUGG	GLIS3	0.8659
AUAGUAGUGGGUAAGUAGC	ACSL6	-0.1351

Some entries from above, unchanged:

For UCACUAACAAUUCUCCUGG against GATA5 the result was seed-corrected z-score 0.8524.
For UAUUCUAAGGUGCAGGUGG against GRM4 the result was seed-corrected z-score 0.02565.
For UAGGAUGUCAGCAGGAUUG against SLC5A2 the result was seed-corrected z-score -1.572.
For AAAGGUAUAUAGCUCCACC against TRMO the result was seed-corrected z-score 0.9899.
For UCUGUAGUCAGCAAUACCU against TCN2 the result was seed-corrected z-score 0.2958.
For AUAGUAAUCGCAGAGCAGC against SLC45A1 the result was seed-corrected z-score -1.111.

Source: PubChem BioAssay AID1159506 (NCATS, 2015).